Laboratory results: PubChem BioAssay AID2685 (National Center for Advancing Translational Sciences (NCATS), 2010)
Some of the results follow. Shown are side measurements of this screen, not its main read-out; they come without a call. Compounds called inactive in the main read-out are mostly missing here. Potencies come from curve fits of mixed quality, noted in brackets.

Test: qHTS Assay for Lipid Storage Modulators in Drosophila S3 Cells;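 for cell number change: cells counted by Cell Tracker Red CMTPX staining in the red channel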
Settings: BODIPY lipid droplet fluorescence, 18-24 h; for cell number change: measured here: cell count max response, cells fed with added oleic acid
Summary of the method: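 Drosophila S3 cells got compounds at several concentrations plus oleic acid (400 uM solution). Laser-scanning cytometry with 488 nm excitation read lipid droplets at 500-530 nm and cells at 575-640 nm. Percent activity was relative to 20 uM Triacsin C.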

[1] = measured here: lipid fluorescence (Fed channel) AC50, cells fed with added oleic acid
[2] = measured here: cell number channel AC50, cells fed with added oleic acid

Structure (SMILES) | cell number change | AC50 [1] | AC50 [2]
COc1ccc(NC(=O)CN(c2cc(C)cc(C)c2)S(=O)(=O)c2c(C)noc2C)cc1OC | -20.7% | 18.4 µM [falling, single point] | 
Cc1nc2scc(C)n2c(=O)c1S(=O)(=O)N1CCN(c2ccc(F)cc2)CC1 | -43% | 0.58 µM [falling, single point] | 32.6 µM [falling, single point]
CCn1c(COc2ccc3c(c2)OCO3)nnc1SCC(=O)c1ccccc1 | -30.1% |  | 29.1 µM [falling, single point]
COc1cccc(C(C)NC(=O)C2CCCC2)c1 (centres undefined) | 2.65% |  | 
O=C(COc1ccc2c(c1)oc(=O)c1ccccc12)NC(Cc1ccc(Cl)cc1)C(=O)O (centres undefined) | 11.5% | 2.91 µM [rising, single point] | 
Cc1cc(C(=O)Nc2sc3c(c2C#N)CCC(C(C)(C)C)C3)no1 (centres undefined) | 33.3% |  | 29.1 µM [rising, single point]
CC(C)Oc1ccc(Cc2cnc(=S)[nH]c2N)cc1 | 44.5% | 6.51 µM [falling, single point] | 
CC(C)Sc1ccc([N+](=O)[O-])cc1C(=O)Nc1ccncc1 | 17.8% | 0.517 µM [rising, partial curve, poor fit] | 1.64 µM [rising, partial curve, poor fit]
COCCCNC(=O)c1cc(Sc2nnc(C)s2)nc2ccccc12 | 31.8% | 6.51 µM [rising, partial curve, poor fit] | 2.59 µM [rising, full curve]
Cc1noc(C)c1S(=O)(=O)N1CCCC(C(=O)N2CCc3ccccc3C2)C1 (centres undefined) | -8.47% | 1.46 µM [rising, partial curve, poor fit] | 
COc1ccccc1-c1cc(C(=O)N2CCN(c3ccccc3OC)CC2)no1 | -44% | 3.66 µM [falling, partial curve] | 2.06 µM [falling, partial curve]
CC(OC(=O)c1ccccc1Nc1ccc(SC(F)F)cc1)C(N)=O (centres undefined) | -37.2% |  | 32.6 µM [falling, single point]
Cn1ccc(C(=O)Nc2cccnc2Cl)n1 | -38.1% | 29.1 µM [rising, single point] | 0.164 µM [falling, full curve]
COCCn1c(=S)[nH]c2ncccc2c1=O | 5.66% |  | 
FC(F)(F)C1=CC(c2ccc(Cl)cc2)=NCCN1 | 16.3% | 0.146 µM [falling, full curve, poor fit] | 
O=C(CSc1nc(O)c(C2CCCCC2)c(=O)[nH]1)Nc1ccccc1Cl | 6.25% | 1.16 µM [rising, single point] | 
Cn1c(=O)oc2cc(S(=O)(=O)Nc3cccc(C(=O)O)c3)ccc21 | -3.02% | 8.2 µM [falling, partial curve] | 
CCOc1ccc(NC(=O)CCNS(=O)(=O)c2cccc3nonc23)cc1 | 31.2% | 0.116 µM [rising, full curve, poor fit] | 
CCCC(C)NC(=O)c1cccc(Oc2ccccc2)c1 (centres undefined) | -48.3% | 18.4 µM [falling, partial curve, poor fit] | 
COCCN1C(=O)N(c2cccc(C)c2)C(=O)C1CC(=O)Nc1ccc(OC)cc1 (centres undefined) | -8.56% | 29.1 µM [rising, single point] | 

Structure (SMILES) | cell number change | AC50 [1] | AC50 [2]
CCOC(=O)N1CCN(C(=S)Nc2ccccc2C)CC1 |  | 29.1 µM [falling, single point] | 
CCOC(=O)[C@@H]1[C@H]2COc3cc(OC)ccc3[C@@H]2N2C(=O)N(c3cccc(F)c3)C(=O)[C@@]12C | -2.4% | 7.31 µM [rising, partial curve] | 
O=C(/C=C/c1ccc(OC(F)F)cc1)Nc1cccc(S(=O)(=O)N2CCOCC2)c1 | 56.5% |  | 0.326 µM [rising, full curve]
COc1ccc(OCCC(=O)Nc2ccc(S(N)(=O)=O)cc2)cc1 | 46.6% | 29.1 µM [rising, single point] | 13 µM [rising, partial curve, poor fit]
CC(C)(C)OC(=O)N/N=C/c1c[nH]c2ccccc12 | -0.853% | 13 µM [rising, single point] | 
CCOC(=O)c1c(-c2cccs2)csc1NC(=O)CCCC(=O)O | -5.57% |  | 0.164 µM [falling, full curve, poor fit]
COc1cc([N+](=O)[O-])ccc1NC(=O)COC(=O)c1n[nH]c2ccccc12 | 3.37% | 29.1 µM [rising, single point] | 
Cc1ccc(C(C)C)cc1S(=O)(=O)NC1CC(C)(C)NC(C)(C)C1 | 23.5% | 29.1 µM [rising, single point] | 1.16 µM [rising, full curve, poor fit]
CC(Oc1ccccc1Cl)C(=O)N1CCCN(C)CC1 (centres undefined) | -1.1% |  | 
CCOC(=O)N1CCC(NS(=O)(=O)c2ccc3c(c2)CCN3C(C)=O)CC1 | 57.3% |  | 14.6 µM [rising, single point]
c1ccc(-c2n[nH]nc2-c2ccccc2)cc1 |  | 0.366 µM [falling, full curve] | 
CC(=O)c1cccc(N2C(=NC(=O)C3CC3)SC3CS(=O)(=O)CC32)c1 (centres undefined) | 13.7% | 23.1 µM [falling, single point] | 
O=c1cnnc(N/N=C/c2ccc3c(c2)OCO3)[nH]1 | 24.6% |  | 
CC1CCCN(C(=O)CN(c2ccccc2)S(=O)(=O)c2ccc(F)cc2)C1 (centres undefined) | 12.3% | 2.91 µM [rising, full curve] | 
O=C1CCCc2c1cnc1ncnn21 | -9.74% | 4.11 µM [rising, full curve] | 
CC(=O)C1=C(O)C(=O)N(CCc2c[nH]c3ccccc23)C1c1ccco1 (centres undefined) | -3.09% | 0.013 µM [falling, full curve, poor fit] | 
COc1ccc(NC(=O)c2cccc(N3C(=O)C4CCC(C)CC4C3=O)c2)c(OC)c1 (centres undefined) | 15.8% |  | 
CCCn1c(CN2CCN(c3cccc(Cl)c3)CC2)nc2c1c(=O)n(C)c(=O)n2C | -0.395% |  | 
COc1ccc(Cl)cc1S(=O)(=O)N1CCC(C(=O)NCc2ccccn2)CC1 | 18.5% |  | 0.461 µM [falling, full curve, poor fit]
O=C(CC1Oc2ccccc2NC1=O)NCCCN1CCN(Cc2ccccc2)CC1 (centres undefined) | -28.9% | 32.6 µM [falling, single point] | 

Structure (SMILES) | cell number change | AC50 [1] | AC50 [2]
OCCNc1ncnc2ccc(Br)cc12 | -18.9% | 29.1 µM [falling, single point] | 
COc1ccc(-c2cc(C(F)(F)F)nc(S(=O)(=O)CCCC(=O)Nc3cccnc3Cl)n2)cc1OC | -140% | 29.1 µM [falling, partial curve, poor fit] | 29.1 µM [falling, partial curve]
Cc1cc(C)n2cc(CSc3nnc(-c4ccccc4)o3)nc2n1 | -1.67% | 0.58 µM [rising, single point] | 
CCNC(=O)COC(=O)c1cc(-c2ccco2)nc2ccccc12 | -49.4% |  | 
O=c1[nH]c(C2CCN(S(=O)(=O)c3ccc(S(=O)(=O)NC4CC4)cc3)CC2)nc2c1nnn2Cc1cccc(F)c1 | -18.1% |  | 
O=[N+]([O-])c1cc(S(=O)(=O)C(F)(F)F)ccc1N1CCN(c2ccccc2)CC1 | -4.22% | 13 µM [falling, partial curve] | 
O=C1CC(Sc2ncccn2)C(=O)N1c1ccccc1 (centres undefined) | -58.4% |  | 4.11 µM [falling, single point]
COc1ccc(/C=C/C(=O)Nc2ccc(N3CCOCC3)cc2)cc1 | 0.439% | 32.6 µM [falling, single point] | 
C(=N\Nc1ccc2ccccc2n1)/c1ccc2c(c1)OCO2 | 1.1% |  | 
COCCCNC(=O)CN1CCN(Cc2ccc(Cl)cc2)C1=O | -13.4% | 0.164 µM [falling, full curve, poor fit] | 
O=C(Nc1sc2c(c1-c1nc3ccccc3[nH]1)CCCC2)C1CC1 | -22.8% | 2.06 µM [rising, partial curve] | 
O=S(=O)(NCC1CN(S(=O)(=O)c2c(F)cccc2F)C1)c1ccc2c(c1)OCCO2 | -37.3% | 18.4 µM [falling, partial curve] | 16.4 µM [falling, partial curve]
O=C(O)C1CC=CCC1C(=O)N1CCN(c2nc(-c3ccccc3Cl)c3cc(Br)ccc3n2)CC1 (centres undefined) | -11.6% | 2.91 µM [rising, single point] | 
COc1ccccc1-c1cc(-c2ccc(C)cc2)nc(SCc2nnc(-c3ccccc3)o2)c1C#N |  | 0.731 µM [rising, full curve] | 0.184 µM [rising, full curve, poor fit]
CC(C)(O)C1=NOC(c2ccccc2)C1 (centres undefined) | -61.1% | 29.1 µM [falling, single point] | 16.4 µM [falling, single point]
COc1ccc(-c2csc3ncnc(N4CCN(S(=O)(=O)c5cccs5)CC4)c23)cc1 | -6.83% |  | 
c1ccc(CNc2nc(-c3cccs3)nc3ccccc23)cc1 | 54% | 29.1 µM [rising, single point] | 18.4 µM [rising, partial curve, poor fit]
CCCC(=O)NC(c1ccccc1)c1c(O)ccc2ccccc12 (centres undefined) | -12% |  | 
COc1ccc(OC)c(S(=O)(=O)N2CCCC2C(=O)N2CCc3ccccc3C2)c1 (centres undefined) | -7.89% | 0.562 µM [falling, full curve] | 
Cc1onc(-c2ccccc2)c1-c1csc(N/N=C/c2ccccc2Cl)n1 | 37.8% | 29.1 µM [rising, single point] | 29.1 µM [rising, single point]
